{"source": "the supplement of paper PMC7858590", "note": "± gives the standard deviation of the averaged measurements. Whole data set: some 3,800 compounds, median “cell shape (eccentricity) Z-score vs DMSO control” near 1.1, cut for the lowest 2% near -4.7. Some of the results follow."}
{"test_system": "human monocyte-derived macrophages (M0)", "experiment": "cell shape (eccentricity) Z-score vs DMSO control; higher = more elongated, M2-like morphology", "conditions": "20 µM; 24 h; macrophage state: M0 (M-CSF)"}
{"smiles": "CCCCCCN(CCCCCC)C(=O)Cc1c(-c2ccc(Cl)cc2)[nH]c2ccc(Cl)cc12", "cell shape (Z-score)": 0.844}
{"smiles": "CN(C)C(=O)C(CCN1CCC(O)(c2ccc(Cl)cc2)CC1)(c1ccccc1)c1ccccc1", "cell shape (Z-score)": 2.14}
{"smiles": "C[C@H](CO)N1C[C@H](C)[C@H](CN(C)CC2CC2)Oc2ccc(NS(=O)(=O)c3cn(C)cn3)cc2C1=O", "cell shape (Z-score)": 1.97}
{"smiles": "CC(C)c1cc(/C=C(\\C#N)C(=O)NCCCc2ccccc2)cc(C(C)C)c1O", "cell shape (Z-score)": 2.76}
{"smiles": "CC(C)[C@H](CO)Nc1nc(Nc2cccc(Cl)c2)c2ncn(C(C)C)c2n1", "cell shape (Z-score)": 3.21}
{"smiles": "C[C@@H]1CN(CC(=O)Nc2ccc3c(c2)Cc2cccc(-c4cc(=O)cc(N5CCOCC5)o4)c2S3)C[C@H](C)O1", "cell shape (Z-score)": 4.22}
{"smiles": "CCn1c(=O)c2c(nc(/C=C/c3ccc(OC)c(OC)c3)n2C)n(CC)c1=O", "cell shape (Z-score)": 5.11}
{"smiles": "C/C=C(\\C)C(=O)O[C@@H]1[C@@H](OC(C)=O)C2[C@@]3(C)CC[C@H](OC4CC(OC)C(OC5CC(OC)C(OC6CC(OC)C(OC7OC(C)C(OC8OC(CO)C(O)C(O)C8O)C(OC)C7O)C(C)O6)C(C)O5)C(C)O4)CC3=CC[C@@]2(O)[C@@]2(O)CC[C@H](C(C)=O)[C@@]12C", "note": "(some centres undefined)", "cell shape (Z-score)": "-2.05 ± 0.52"}
{"smiles": "COc1c(O[C@@H]2O[C@H](CO[C@H]3OC[C@](O)(CO)[C@H]3O)[C@@H](O)[C@H](O)[C@H]2O)cc2occ(-c3ccc(O)cc3)c(=O)c2c1O", "cell shape (Z-score)": 0.461}
{"smiles": "CC(=O)OC1C(C)OC(OC2C(CO)OC(OC(=O)[C@]34CCC(C)(C)CC3C3=CCC5[C@@]6(C)CC[C@H](OC7OC(CO)C(OC8OC(CO)C(OC9OCC(O)C(O)C9O)C(O)C8O)C(O)C7O)[C@@](C)(CO)C6CC[C@@]5(C)[C@]3(C)CC4)C(OC3OC(C)C(O)C(O)C3O)C2O)C(O)C1O", "note": "(some centres undefined)", "cell shape (Z-score)": 1.12}
{"smiles": "C=C1c2c(Cl)ccc(O)c2C(=O)C2C(=O)[C@]3(O)C(=O)C(C(N)=O)C(=O)[C@@H](N(C)C)[C@@H]3[C@@H](O)[C@H]12", "note": "(some centres undefined)", "cell shape (Z-score)": -1.63}
{"smiles": "N#CN/C(=N/CCCCCCOc1ccc(Cl)cc1)Nc1ccncc1", "cell shape (Z-score)": -4.36}
{"smiles": "O=C(Nc1ccccc1)C(O)C(O)C(=O)Nc1ccccc1", "note": "(centres undefined)", "cell shape (Z-score)": 1.2}
{"smiles": "COc1c(O)cc2c(c1O)C(=O)CC(c1ccccc1)O2", "note": "(centres undefined)", "cell shape (Z-score)": 0.404}
{"smiles": "CC1(O)CC(=O)c2c(ccc3c2C(=O)c2cccc(O)c2C3=O)C1", "note": "(centres undefined)", "cell shape (Z-score)": -4.37}
{"smiles": "Cc1ccc([N+](=O)[O-])cc1S(=O)(=O)N(C)C", "cell shape (Z-score)": -0.141}
{"smiles": "CC(C)CC(NC(=O)N1CCCCCC1)C(=O)NC(Cc1cn(C)c2ccccc12)C(=O)NC(Cc1ccccn1)C(=O)O", "note": "(centres undefined)", "cell shape (Z-score)": 0.497}
{"smiles": "COc1ccc(C2OCC3(O)C(c4ccc(OC)c(OC)c4)OCC23)cc1OC", "note": "(centres undefined)", "cell shape (Z-score)": 1.67}
{"smiles": "COC(=O)C1=COC(OC2OC(CO)C(O)C(O)C2O)C2C1C(O)CC2(C)OC(C)=O", "note": "(centres undefined)", "cell shape (Z-score)": 2.6}
{"smiles": "CC(=O)Nc1ncc([N+](=O)[O-])s1", "cell shape (Z-score)": 0.475}
{"smiles": "CCCCCCCCC=CCCCCCCCC(=O)NCCO", "cell shape (Z-score)": 0.309}
{"smiles": "CN1c2cc3c(cc2N=C(c2ccc(C(=O)O)cc2)c2ccccc21)C(C)(C)CCC3(C)C", "cell shape (Z-score)": -2.76}
{"smiles": "C[C@H](CCC(=O)O)[C@H]1CCC2C3C(=O)CC4CC(=O)CC[C@]4(C)C3CC(=O)[C@@]21C", "note": "(some centres undefined)", "cell shape (Z-score)": 1.81}
{"smiles": "CC1CCC2(NC1)OC1CC3C4CC=C5CC(O[C@@H]6O[C@H](CO)[C@@H](O[C@@H]7O[C@@H](C)[C@H](O)[C@@H](O)[C@H]7O)[C@H](O)[C@H]6O)CCC5(C)C4CCC3(C)C1C2C", "note": "(some centres undefined)", "cell shape (Z-score)": 0.328}
{"smiles": "CCc1cc2c(c(CC)n1)CCC(=O)N2Cc1ccc(-c2ccccc2-c2nnn[nH]2)cc1", "cell shape (Z-score)": 2.77}
{"smiles": "CCCCC(=O)O[C@H]1CCC2C3CCc4cc(O)ccc4C3CC[C@@]21C", "note": "(some centres undefined)", "cell shape (Z-score)": 1.71}
{"smiles": "CNCCCC12CCC(c3ccccc31)c1ccccc12", "cell shape (Z-score)": 0.766}
{"smiles": "COc1ccc2c(c1)CCC1C2CC[C@@]2(C)C1CC[C@@H]2O", "note": "(some centres undefined)", "cell shape (Z-score)": 3.09}
{"smiles": "COC(=O)c1c(C)cc2c(c(C)c1=O)OC1(C2)C(C)CCC2C(C)(C)OC(=O)C=CC21C", "note": "(centres undefined)", "cell shape (Z-score)": 1.64}
{"smiles": "c1ccc(COCCCc2cnc[nH]2)cc1", "cell shape (Z-score)": 2.2}
{"smiles": "COC(=O)c1cccc(OC(C)C(=O)O)c1", "note": "(centres undefined)", "cell shape (Z-score)": "0.817 ± 1.2"}
{"smiles": "O=C(O)CC[C@H]1CC[C@@](c2cc(F)ccc2F)(S(=O)(=O)c2ccc(Cl)cc2)CC1", "cell shape (Z-score)": -4.59}
{"smiles": "O=C(O)c1ccc(NC2OCC(O)C(O)C2O)cc1", "note": "(centres undefined)", "cell shape (Z-score)": 0.577}
{"smiles": "C=C1CCC2[C@](C)(CCC[C@]2(C)C(=O)O)[C@H]1CC/C(C)=C/C(=O)OC", "note": "(some centres undefined)", "cell shape (Z-score)": -0.908}
{"smiles": "C[C@H]1CC(=O)C2=C(C1)C(O)C(O)[C@@]1(O)[C@H]2C(=O)c2cccc(O)c2[C@@H]1O", "note": "(some centres undefined)", "cell shape (Z-score)": 0.941}
{"smiles": "COc1cc(/C=C/CO)ccc1O[C@@H]1O[C@H](CO)[C@@H](O)[C@H](O)[C@H]1O", "cell shape (Z-score)": 1.08}
{"smiles": "FC(F)(F)c1cc(CO[C@H]2CCCN[C@H]2c2ccccc2)cc(C(F)(F)F)c1", "cell shape (Z-score)": 1.06}
{"smiles": "Nc1nc(=O)[nH]cc1F", "cell shape (Z-score)": -0.631}
{"smiles": "C=C1CCC[C@]2(C)CC[C@@](O)(C(=C)C(=O)O)C[C@@H]12", "cell shape (Z-score)": -0.504}
{"smiles": "COc1ccc(/C=C/C(=O)O[C@]2(C)CCC3C(C(=O)O)=CO[C@@H](O[C@@H]4O[C@H](CO)[C@@H](O)[C@H](O)[C@H]4O)[C@@H]32)cc1", "note": "(some centres undefined)", "cell shape (Z-score)": 1.31}
{"smiles": "CC(C(=O)O)c1ccc(N2Cc3ccccc3C2=O)cc1", "note": "(centres undefined)", "cell shape (Z-score)": 1.06}
{"smiles": "C[C@H]1CN([C@@H](C)CO)C(=O)c2cc(C#CC3(O)CCCC3)cnc2O[C@@H]1CN(C)C(=O)C1CCOCC1", "cell shape (Z-score)": 0.441}
{"smiles": "COc1cc2ncnc(Nc3ccc(O)c(Br)c3)c2cc1OC", "cell shape (Z-score)": 15.2}
{"smiles": "C=C1CC[C@@]2(OC1)O[C@H]1CC3[C@@H]4CC=C5C[C@H](O[C@@H]6OC[C@H](O)[C@H](O)[C@H]6O[C@@H]6O[C@@H](C)[C@H](O)[C@@H](O)[C@H]6O)C[C@@H](O)[C@]5(C)C4CC[C@]3(C)[C@H]1[C@@H]2C", "note": "(some centres undefined)", "cell shape (Z-score)": -1.19}
{"smiles": "O=C(Cn1ccnc1[N+](=O)[O-])NCc1ccccc1", "cell shape (Z-score)": 0.698}
{"smiles": "C[C@H]1CN([C@@H](C)CO)S(=O)(=O)c2ccc(C#Cc3ccccc3F)cc2O[C@H]1CN(C)C(=O)Cc1ccncc1", "cell shape (Z-score)": 2.68}
{"smiles": "CC(=O)Nc1nc(C)c(S(=O)(=O)Nc2ccc(C(O)(C(F)(F)F)C(F)(F)F)cc2)s1", "cell shape (Z-score)": 0.463}
{"smiles": "CC(=O)OC1C(=O)C2(C)C(O)CC3OCC3(OC(C)=O)C2C(OC(=O)c2ccccc2)C2(O)CC(OC(=O)C(O)C(NC(=O)c3ccccc3)c3ccccc3)C(C)=C1C2(C)C", "note": "(centres undefined)", "cell shape (Z-score)": -3.69}
{"smiles": "CCCCCS(=O)(=O)CCCCCCCCCCn1c(-c2ccc(O)cc2)c(C)c2cc(O)ccc21", "cell shape (Z-score)": -0.945}
